{"source": "PubChem BioAssay AID504784 (Drosophila RNAi Screening Center, 2011)", "assay": "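Genome-wide knock-down for genes giving too much or too little stored lipid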 (primary screen)", "cells": "Drosophila Kc167 embryonic cells", "reagents": "long dsRNA against Drosophila genes, about 250 ng dsRNA per well", "time to read-out": "4 days", "challenge": "cells fed 400 µM oleic acid bound to BSA", "measurement": "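Microscope images give a droplet-to-nucleus area ratio, taken as log and converted to a screen-wide B-score; higher values mean greater lipid storage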", "direction": "droplet/nuclear area B-score: higher = more stored lipid (overstorage)", "note": "In all, the deposit lists about 17,000 reagents; below is an unselected part of those that have a named target and a result. 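Each column is one replicate's B-score; the combined score over replicates was not deposited, so single values may mislead.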 Reagents against one gene are numbered here. Further read-outs or replicates are left out here. No sequences are given here."}
{"gene knocked down": "CG14866", "reagent no.": 1, "droplet/nuclear area B-score, replicate 1": -0.391}
{"gene knocked down": "tara (taranis)", "reagent no.": 1, "droplet/nuclear area B-score, replicate 1": -0.118}
{"gene knocked down": "tara (taranis)", "reagent no.": 2, "droplet/nuclear area B-score, replicate 1": 0.322}
{"gene knocked down": "CROT (Carnitine O-octanoyltransferase)", "reagent no.": 1, "droplet/nuclear area B-score, replicate 1": -4.77}
{"gene knocked down": "CROT (Carnitine O-octanoyltransferase)", "reagent no.": 2, "droplet/nuclear area B-score, replicate 1": -0.256}
{"gene knocked down": "CG15376 (retired record)", "reagent no.": 1, "droplet/nuclear area B-score, replicate 1": 1.32}
{"gene knocked down": "CG4751", "reagent no.": 1, "droplet/nuclear area B-score, replicate 1": -0.196}
{"gene knocked down": "Rbbp5 (Retinoblastoma binding protein 5)", "reagent no.": 1, "droplet/nuclear area B-score, replicate 1": -0.557}
{"gene knocked down": "CCT3 (Chaperonin containing TCP1 subunit 3)", "reagent no.": 1, "droplet/nuclear area B-score, replicate 1": 0.287}
{"gene knocked down": "CG30050", "reagent no.": 1, "droplet/nuclear area B-score, replicate 1": -0.482}
{"gene knocked down": "amd (alpha methyl dopa-resistant)", "reagent no.": 1, "droplet/nuclear area B-score, replicate 1": 1.24}
{"gene knocked down": "amd (alpha methyl dopa-resistant)", "reagent no.": 2, "droplet/nuclear area B-score, replicate 1": -0.0392}
{"gene knocked down": "Rim2 (Replication in mitochondria 2)", "reagent no.": 1, "droplet/nuclear area B-score, replicate 1": -0.422}
{"gene knocked down": "Rim2 (Replication in mitochondria 2)", "reagent no.": 2, "droplet/nuclear area B-score, replicate 1": 0.192}
{"gene knocked down": "CG13614", "reagent no.": 1, "droplet/nuclear area B-score, replicate 1": 0.0284}
{"gene knocked down": "pygo (pygopus)", "reagent no.": 1, "droplet/nuclear area B-score, replicate 1": -0.0212}
{"gene knocked down": "Vps45 (Vacuolar protein sorting 45)", "reagent no.": 1, "droplet/nuclear area B-score, replicate 1": -0.0924}
{"gene knocked down": "CG7627", "reagent no.": 1, "droplet/nuclear area B-score, replicate 1": 1.31}

Laid out differently: entries from further up.
Rim2 (Replication in mitochondria 2) #1
- droplet/nuclear area B-score, replicate 1: -0.422

Rim2 (Replication in mitochondria 2) #2
- droplet/nuclear area B-score, replicate 1: 0.192

CG13614
- droplet/nuclear area B-score, replicate 1: 0.0284

pygo (pygopus)
- droplet/nuclear area B-score, replicate 1: -0.0212

Vps45 (Vacuolar protein sorting 45)
- droplet/nuclear area B-score, replicate 1: -0.0924

More entries follow:
{"gene knocked down": "brk (brinker)", "reagent no.": 1, "droplet/nuclear area B-score, replicate 1": 2.53}
{"gene knocked down": "brk (brinker)", "reagent no.": 2, "droplet/nuclear area B-score, replicate 1": 0.119}
{"gene knocked down": "CG32591", "reagent no.": 1, "droplet/nuclear area B-score, replicate 1": -0.635}
{"gene knocked down": "CG17544", "reagent no.": 1, "droplet/nuclear area B-score, replicate 1": -1.15}
{"gene knocked down": "CG5934", "reagent no.": 1, "droplet/nuclear area B-score, replicate 1": 0.128}
{"gene knocked down": "C1GalTA (Core 1 Galactosyltransferase A)", "reagent no.": 1, "droplet/nuclear area B-score, replicate 1": 0.388}
{"gene knocked down": "Mat89Ba (Maternal transcript 89Ba)", "reagent no.": 1, "droplet/nuclear area B-score, replicate 1": 3}
{"gene knocked down": "CG32344", "reagent no.": 1, "droplet/nuclear area B-score, replicate 1": -0.692}
{"gene knocked down": "Rpe (Ribulose-5-phosphate-3-epimerase)", "reagent no.": 1, "droplet/nuclear area B-score, replicate 1": 0.171}
{"gene knocked down": "Desi (Desiccate)", "reagent no.": 1, "droplet/nuclear area B-score, replicate 1": -0.867}
{"gene knocked down": "Cp7Fa (Chorion protein a at 7F)", "reagent no.": 1, "droplet/nuclear area B-score, replicate 1": 0.0642}
{"gene knocked down": "Cp7Fa (Chorion protein a at 7F)", "reagent no.": 2, "droplet/nuclear area B-score, replicate 1": -0.415}
{"gene knocked down": "CG31041", "reagent no.": 1, "droplet/nuclear area B-score, replicate 1": 0.0895}
{"gene knocked down": "Eip63E (Ecdysone-induced protein 63E)", "reagent no.": 1, "droplet/nuclear area B-score, replicate 1": 0.775}
{"gene knocked down": "Irp-1A (Iron regulatory protein 1A)", "reagent no.": 1, "droplet/nuclear area B-score, replicate 1": -1.38}
{"gene knocked down": "Cngl (Cyclic nucleotide-gated ion channel-like)", "reagent no.": 1, "droplet/nuclear area B-score, replicate 1": -2.56}
{"gene knocked down": "CG32262", "reagent no.": 1, "droplet/nuclear area B-score, replicate 1": -0.0796}
{"gene knocked down": "CG1246", "reagent no.": 1, "droplet/nuclear area B-score, replicate 1": -1.4}
{"gene knocked down": "Gr36a (Gustatory receptor 36a)", "reagent no.": 1, "droplet/nuclear area B-score, replicate 1": -0.522}
{"gene knocked down": "Cpr47Eg (Cuticular protein 47Eg)", "reagent no.": 1, "droplet/nuclear area B-score, replicate 1": -0.881}
{"gene knocked down": "CHMP2B (Charged multivesicular body protein 2b)", "reagent no.": 1, "droplet/nuclear area B-score, replicate 1": 0.795}
{"gene knocked down": "CG10650", "reagent no.": 1, "droplet/nuclear area B-score, replicate 1": 0.163}
{"gene knocked down": "Klp67A (Kinesin-like protein at 67A)", "reagent no.": 1, "droplet/nuclear area B-score, replicate 1": -0.743}
{"gene knocked down": "Ccdc114 (Coiled-coil domain containing protein 114)", "reagent no.": 1, "droplet/nuclear area B-score, replicate 1": 1.14}
{"gene knocked down": "NKAIN (Na,K-ATPase Interacting)", "reagent no.": 1, "droplet/nuclear area B-score, replicate 1": -0.0822}
{"gene knocked down": "NKAIN (Na,K-ATPase Interacting)", "reagent no.": 2, "droplet/nuclear area B-score, replicate 1": -1.82}
{"gene knocked down": "CG6527", "reagent no.": 1, "droplet/nuclear area B-score, replicate 1": -0.0515}
{"gene knocked down": "SuUR (Suppressor of Under-Replication)", "reagent no.": 1, "droplet/nuclear area B-score, replicate 1": 0.311}
{"gene knocked down": "Dph4 (Diphthamide biosynthesis 4)", "reagent no.": 1, "droplet/nuclear area B-score, replicate 1": -0.49}
{"gene knocked down": "CG43672", "reagent no.": 1, "droplet/nuclear area B-score, replicate 1": -0.184}
{"gene knocked down": "CG43672", "reagent no.": 2, "droplet/nuclear area B-score, replicate 1": 0.275}
{"gene knocked down": "Nuak (Nuak family kinase)", "reagent no.": 1, "droplet/nuclear area B-score, replicate 1": 0.558}
{"gene knocked down": "Nuak (Nuak family kinase)", "reagent no.": 2, "droplet/nuclear area B-score, replicate 1": 0.392}
{"gene knocked down": "Nuak (Nuak family kinase)", "reagent no.": 3, "droplet/nuclear area B-score, replicate 1": 0.209}
